Source: PMC5601916

Amino acid sequences for entries named in this document (tags omitted).
UniProt O88895: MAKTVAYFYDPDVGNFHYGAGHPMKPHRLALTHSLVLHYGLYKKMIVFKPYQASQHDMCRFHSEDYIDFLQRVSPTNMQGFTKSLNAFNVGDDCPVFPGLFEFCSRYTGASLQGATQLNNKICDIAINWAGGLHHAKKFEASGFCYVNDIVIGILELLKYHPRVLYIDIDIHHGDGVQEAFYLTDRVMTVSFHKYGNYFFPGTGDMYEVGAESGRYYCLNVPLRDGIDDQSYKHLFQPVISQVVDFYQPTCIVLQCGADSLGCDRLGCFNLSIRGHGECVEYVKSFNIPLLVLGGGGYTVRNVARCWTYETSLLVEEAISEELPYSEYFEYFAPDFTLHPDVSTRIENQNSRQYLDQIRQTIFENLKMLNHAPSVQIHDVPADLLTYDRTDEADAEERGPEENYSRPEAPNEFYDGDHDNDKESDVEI
UniProt Q60974: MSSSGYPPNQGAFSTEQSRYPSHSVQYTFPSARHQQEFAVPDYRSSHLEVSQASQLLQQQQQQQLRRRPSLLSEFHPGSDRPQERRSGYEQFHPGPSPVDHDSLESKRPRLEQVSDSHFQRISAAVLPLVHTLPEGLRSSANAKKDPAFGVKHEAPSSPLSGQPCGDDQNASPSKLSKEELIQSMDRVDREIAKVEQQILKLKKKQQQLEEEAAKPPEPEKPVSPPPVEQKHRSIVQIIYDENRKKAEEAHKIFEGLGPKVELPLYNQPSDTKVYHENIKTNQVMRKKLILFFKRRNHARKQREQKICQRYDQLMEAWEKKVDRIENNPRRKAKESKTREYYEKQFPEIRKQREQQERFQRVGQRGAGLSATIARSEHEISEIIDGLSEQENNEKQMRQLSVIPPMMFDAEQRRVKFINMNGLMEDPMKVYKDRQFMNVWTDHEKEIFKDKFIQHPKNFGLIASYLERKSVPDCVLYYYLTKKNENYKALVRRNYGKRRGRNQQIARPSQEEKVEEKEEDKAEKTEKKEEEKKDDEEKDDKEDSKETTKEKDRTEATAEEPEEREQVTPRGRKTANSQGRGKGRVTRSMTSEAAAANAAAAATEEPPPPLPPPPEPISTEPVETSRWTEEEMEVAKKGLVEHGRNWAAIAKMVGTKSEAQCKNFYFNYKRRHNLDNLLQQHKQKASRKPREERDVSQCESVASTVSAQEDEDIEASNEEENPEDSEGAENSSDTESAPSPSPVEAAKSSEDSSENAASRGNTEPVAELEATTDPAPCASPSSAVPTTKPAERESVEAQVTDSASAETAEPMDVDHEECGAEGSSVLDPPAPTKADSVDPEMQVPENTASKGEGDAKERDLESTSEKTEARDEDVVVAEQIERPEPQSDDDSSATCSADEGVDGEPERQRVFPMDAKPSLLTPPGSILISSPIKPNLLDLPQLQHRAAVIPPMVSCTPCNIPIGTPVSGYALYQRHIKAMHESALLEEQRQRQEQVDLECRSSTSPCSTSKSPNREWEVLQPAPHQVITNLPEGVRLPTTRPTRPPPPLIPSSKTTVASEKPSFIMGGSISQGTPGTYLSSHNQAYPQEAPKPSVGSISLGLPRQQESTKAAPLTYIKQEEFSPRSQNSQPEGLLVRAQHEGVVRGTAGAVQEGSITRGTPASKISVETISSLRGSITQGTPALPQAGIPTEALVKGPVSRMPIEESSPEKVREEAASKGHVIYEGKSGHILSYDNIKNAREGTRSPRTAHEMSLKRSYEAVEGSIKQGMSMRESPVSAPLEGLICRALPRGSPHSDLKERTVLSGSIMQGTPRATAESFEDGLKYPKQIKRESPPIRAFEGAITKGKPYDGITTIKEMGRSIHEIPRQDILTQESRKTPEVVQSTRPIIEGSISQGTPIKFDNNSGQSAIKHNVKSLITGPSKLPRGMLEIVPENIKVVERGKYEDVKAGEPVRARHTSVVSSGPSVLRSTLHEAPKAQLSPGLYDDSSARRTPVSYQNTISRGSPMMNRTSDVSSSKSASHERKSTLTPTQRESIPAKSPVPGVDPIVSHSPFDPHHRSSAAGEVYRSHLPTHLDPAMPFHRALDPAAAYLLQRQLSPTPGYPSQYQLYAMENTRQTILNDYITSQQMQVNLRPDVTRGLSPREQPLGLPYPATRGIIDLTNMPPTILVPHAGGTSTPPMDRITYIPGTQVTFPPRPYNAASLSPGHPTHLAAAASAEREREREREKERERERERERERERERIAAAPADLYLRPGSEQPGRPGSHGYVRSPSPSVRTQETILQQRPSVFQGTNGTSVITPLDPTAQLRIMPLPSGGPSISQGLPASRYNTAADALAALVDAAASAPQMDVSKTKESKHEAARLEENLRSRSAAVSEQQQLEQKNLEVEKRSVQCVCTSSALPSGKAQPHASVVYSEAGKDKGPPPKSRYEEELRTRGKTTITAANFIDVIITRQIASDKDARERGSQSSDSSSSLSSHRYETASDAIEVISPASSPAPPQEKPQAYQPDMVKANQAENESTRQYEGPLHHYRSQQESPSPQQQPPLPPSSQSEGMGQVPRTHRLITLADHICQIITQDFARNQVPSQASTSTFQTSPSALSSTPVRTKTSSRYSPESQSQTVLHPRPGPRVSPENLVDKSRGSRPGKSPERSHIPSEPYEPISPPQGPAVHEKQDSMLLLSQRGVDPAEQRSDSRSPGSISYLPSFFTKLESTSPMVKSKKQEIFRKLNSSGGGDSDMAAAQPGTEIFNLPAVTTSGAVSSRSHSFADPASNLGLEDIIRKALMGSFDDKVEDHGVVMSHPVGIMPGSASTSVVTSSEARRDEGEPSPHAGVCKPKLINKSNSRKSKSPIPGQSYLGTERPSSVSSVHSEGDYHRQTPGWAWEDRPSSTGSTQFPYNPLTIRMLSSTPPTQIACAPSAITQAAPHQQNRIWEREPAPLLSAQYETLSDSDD
UniProt P53566: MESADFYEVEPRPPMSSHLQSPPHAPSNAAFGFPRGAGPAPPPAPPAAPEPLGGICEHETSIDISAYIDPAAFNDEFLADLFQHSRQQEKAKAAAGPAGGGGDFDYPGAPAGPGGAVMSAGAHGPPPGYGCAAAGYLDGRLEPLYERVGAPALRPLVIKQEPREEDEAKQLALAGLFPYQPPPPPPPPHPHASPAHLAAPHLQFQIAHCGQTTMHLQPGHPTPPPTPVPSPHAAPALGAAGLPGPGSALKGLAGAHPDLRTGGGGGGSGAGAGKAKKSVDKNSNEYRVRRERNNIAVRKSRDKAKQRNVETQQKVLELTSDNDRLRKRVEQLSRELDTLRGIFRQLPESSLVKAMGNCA
UniProt Q01147: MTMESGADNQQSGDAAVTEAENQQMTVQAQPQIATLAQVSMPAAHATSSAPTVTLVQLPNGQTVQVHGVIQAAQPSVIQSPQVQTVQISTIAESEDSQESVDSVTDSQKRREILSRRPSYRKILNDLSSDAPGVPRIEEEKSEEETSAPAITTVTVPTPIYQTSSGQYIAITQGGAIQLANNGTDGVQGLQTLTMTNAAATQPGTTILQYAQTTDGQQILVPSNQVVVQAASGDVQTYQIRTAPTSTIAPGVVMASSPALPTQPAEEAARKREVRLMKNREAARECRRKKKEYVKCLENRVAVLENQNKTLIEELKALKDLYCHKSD

B1: FXR, endogenous in mouse liver (protein, UniProt Q60641 1-488)
chain: MVMQFQGLENPIQISLHHSHRLSGFVPEGMSVKPAKGMLTEHAAGPLGQNLDLESYSPYNNVPFPQVQPQISSSSYYSNLGFYPQQPEDWYSPGIYELRRMPAETGYQGETEVSEMPVTKKPRMAAASAGRIKGDELCVVCGDRASGYHYNALTCEGCKGFFRRSITKNAVYKCKNGGNCVMDMYMRRKCQECRLRKCKEMGMLAECMYTGLLTEIQCKSKRLRKNVKQHADQTANEDDSEGRDLRQVTSTTKFCREKTELTADQQTLLDYIMDSYNKQRMPQEITNKILKEEFSAEENFLILTEMATSHVQILVEFTKKLPGFQTLDHEDQIALLKGSAVEAMFLRSAEIFNKKLPAGHADLLEERIRKSGISDEYITPMFSFYKSVGELKMTQEEYALLTAIVILSPDRQYIKDREAVEKLQEPLLDVLQKLCKMYQPENPQHFACLLGRLTELRTFNHHHAEMLMSWRVNDHKFTPLLCEIWDVQ
B2: RXRα, endogenous in mouse liver (protein, UniProt P28700 1-467)
chain: MDTKHFLPLDFSTQVNSSSLNSPTGRGSMAVPSLHPSLGPGIGSPLGSPGQLHSPISTLSSPINGMGPPFSVISSPMGPHSMSVPTTPTLGFGTGSPQLNSPMNPVSSTEDIKPPLGLNGVLKVPAHPSGNMASFTKHICAICGDRSSGKHYGVYSCEGCKGFFKRTVRKDLTYTCRDNKDCLIDKRQRNRCQYCRYQKCLAMGMKREAVQEERQRGKDRNENEVESTSSANEDMPVEKILEAELAVEPKTETYVEANMGLNPSSPNDPVTNICQAADKQLFTLVEWAKRIPHFSELPLDDQVILLRAGWNELLIASFSHRSIAVKDGILLATGLHVHRNSAHSAGVGAIFDRVLTELVSKMRDMQMDKTELGCLRAIVLFNPDSKGLSNPAEVEALREKVYASLEAYCKHKYPEQPGRFAKLLLRLPALRSIGLKCLEHLFFFKLIGDTPIDTFLMEMLEAPHQAT
B3: hepatocyte nuclear factor 4α (HNF4α), endogenous in mouse liver (protein, UniProt P49698 1-474)
chain: MRLSKTLAGMDMADYSAALDPAYTTLEFENVQVLTMGNDTSPSEGANLNSSNSLGVSALCAICGDRATGKHYGASSCDGCKGFFRRSVRKNHMYSCRFSRQCVVDKDKRNQCRYCRLKKCFRAGMKKEAVQNERDRISTRRSSYEDSSLPSINALLQAEVLSQQITSPISGINGDIRAKKIANITDVCESMKEQLLVLVEWAKYIPAFCELLLDDQVALLRAHAGEHLLLGATKRSMVFKDVLLLGNDYIVPRHCPELAEMSRVSIRILDELVLPFQELQIDDNEYACLKAIIFFDPDAKGLSDPGKIKRLRSQVQVSLEDYINDRQYDSRGRFGELLLLLPTLQSITWQMIEQIQFIKLFGMAKIDNLLQEMLLGGSASDAPHTHHPLHPHLMQEHMGTNVIVANTMPSHLSNGQMCEWPRPRGQAATPETPQPSPPSGSGSESYKLLPGAITTIVKPPSAIPQPTITKQEAI
B4: ChREBP, endogenous in mouse liver (protein, UniProt Q99MZ3 1-864)
chain: MARALADLSVNLQVPRVVPSPDSDSDTDLEDPSPRRSAGGLHRSQVIHSGHFMVSSPHSDSLTRRRDQEGPVGLADFGPRSIDPTLTHLFECLSLAYSGKLVSPKWKNFKGLKLLCRDKIRLNNAIWRAWYIQYVQRRKSPVCGFVTPLQGSEADEHRKPEAVILEGNYWKRRIEVVMREYHKWRIYYKKRLRKSSREGDFLAPKQVEGGWPPPERWCEQLFSSVVPVLLGGSEEEPGGRQLLDLDCFLSDISDTLFTMTQPSPSSLQLPPEDAYVGNADMIQPDLTPLQPSLDDFMEISDFFTNYRPPQTPTSSNYIESPSFGPMADSLFSSGILAPEMPSPASSSSSSGMTPHSGNTRLQARNSCSGPLDPNPFLSSEFLLPEDPKTKIPPAPGPTPLLPFPTPVKVHGLEPCTPSPFPTMAPPPSLLPEESLLSARFPFTSAPPAPGVSTLPAPTTFVPTPQPGPGPVPFSVDHLPHGYLEPVFGPHFTVPQGMQPRCKPSSPSPGGQKASPPTLASATASPTATATARDNNPCLTQLLRAAKPEQALEPPTMPGTLLRPPESPQDTVSEIPRARAFFPPIPAPTPPRPPPGPATLAPPRSLVVPKAERLSPPASSGSERRLSGDLNSIQPSGALSVHLSPPQTVLSRGRVDNNKMENRRITHISAEQKRRFNIKLGFDTLHGLVSTLSAQPSLKVSKATTLQKTAEYILMLQQERAAMQEEAQQLRDEIEELNAAINLCQQQLPATGVPITHQRFDQMRDMFDDYVRTRTLHNWKFWVFSILIRPLFESFNGMVSTASLHSLRQTSLAWLEQYCSLPALRPTVLNSLRQLSTSTSILTDPSLVPEQATRAVTEGTLGRPL
B5: circadian nuclear receptor Rev-erbα, endogenous in mouse liver (protein, UniProt Q3UV55 1-615)
chain: MTTLDSNNNTGGVITYIGSSGSSPSRTSPESLYSDSSNGSFQSLTQGCPTYFPPSPTGSLTQDPARSFGSAPPSLSDDSSPSSASSSSSSSSSSFYNGSPPGSLQVAMEDSSRVSPSKGTSNITKLNGMVLLCKVCGDVASGFHYGVHACEGCKGFFRRSIQQNIQYKRCLKNENCSIVRINRNRCQQCRFKKCLSVGMSRDAVRFGRIPKREKQRMLAEMQSAMNLANNQLSSLCPLETSPTPHPTSGSMGPSPPPAPAPTPLVGFSQFPQQLTPPRSPSPEPTMEDVISQVARAHREIFTYAHDKLGTSPGNFNANHASGSPSATTPHRWESQGCPSAPNDNNLLAAQRHNEALNGLRQGPSSYPPTWPSGPTHHSCHQPNSNGHRLCPTHVYSAPEGEAPANSLRQGNTKNVLLACPMNMYPHGRSGRTVQEIWEDFSMSFTPAVREVVEFAKHIPGFRDLSQHDQVTLLKAGTFEVLMVRFASLFNVKDQTVMFLSRTTYSLQELGAMGMGDLLNAMFDFSEKLNSLALTEEELGLFTAVVLVSADRSGMENSASVEQLQETLLRALRALVLKNRPSETSRFTKLLLKLPDLRTLNNMHSEKLLSFRVDAQ

target: HA-tagged HDAC3 (AAV8 TBG HDAC3-HA), expressed in hepatocytes of Hdac3 fl/fl mice (UniProt O88895); experiment: affinity purification with mass spectrometry; NEAT ChIP-MS: nuclei isolated from livers expressing HDAC3-HA (endogenous HDAC3 deleted by Cre), cross-linked with 1% formaldehyde, sonicated, anti-HA agarose overnight, nLC-MS/MS; compared with HA-EGFP control (10-fold, P < 0.01)

Row | Molecule | binding
1 | B1 | binds
2 | B2 | binds
3 | B3 | binds
4 | B4 | binds
5 | B5 | binds

target: HA-tagged HDAC3 (AAV8 TBG HDAC3-HA), expressed in hepatocytes of Hdac3 fl/fl mice (UniProt O88895); experiment: as above; remark: another data set of the same source

Row | Molecule | binding
6 | nuclear receptor corepressor (NCOR1), endogenous in mouse liver (from UniProt Q60974 1-2453) | binds
7 | C/EBPα, endogenous in mouse liver (from UniProt P53566 1-359) | binds
8 | CREB1, endogenous in mouse liver (from UniProt Q01147 1-327) | binds

Results are given in words; binding and its absence hold for the method and conditions named. In cells and extracts the contact can be indirect. These calls come from enrichment with a bait or labelling near it, and not all partners need be listed.
